SMILES strings stand for the structures. The list shows a part of the results.

In the assay the test system is T1, CTL2-GFP (C. trachomatis L2/434/Bu, GFP-expressing).
T1 construct: L2/434/Bu, GFP-expressing
More on the design: species or system HeLa; Intracellular C. trachomatis growth in HeLa cells, bulk GFP fluorescence relative to DMSO. Conditions: bulk GFP, single well; 28.5 h, 10 µM; inhibitor.
On to `O=C(NCc1cccc2ccccc12)N1CCN(Cc2ccccc2)CC1` [CBK155628], for which the “% of control remaining” value was 127.647%. As for `CCn1cc(CN2C3CCC2CC(O)(c2ccc(F)cc2)C3)cn1` (stereo not drawn) [CBK282741], the figure is 144.584%; as for `O=C(NC(C(=O)N/N=C/c1ccc(O)cc1)c1n[nH]c(=O)c2ccccc12)c1ccccc1` (stereo not drawn) [CBK262839], 93.1756%; as for `CC(C)Cn1c(=O)[nH]c2ncc(-c3ccc(C(=O)NC4CCCC4)cc3)nc21` [CBK064551], 169.187%. The value for `NCC1CCN(c2nc(-c3cc(C(F)(F)F)cc(C(F)(F)F)c3)cnc2N)CC1` [CBK063960] was 175.421%; that for `NCCNc1ccc([N+](=O)[O-])c(NCc2ccccc2)c1` [CBK262757C] was 84.8158%; that for `Cc1ccc(NC(=O)c2c[nH]c(=O)[nH]c2=O)cc1` [CBK113246] was 128.857%. Turning to `Cc1cccc([C@H]2CN(C(=O)C3CCCC3)[C@@H]3CCN(C4CCCC4)C[C@H]23)c1` [CBK285529], the “% of control remaining” value is 107.586%. As for `COc1ccc(C(C)NC(=O)C2CCCCC2C(=O)O)cc1OC` (stereo not drawn) [CBK270309], the figure is 128.713%; as for `c1cc(-c2nccnc2NCC2CCCCC2)ccn1` [CBK037627], 125.044%. `CC(=O)Nc1nc(-c2ccc(Cl)s2)cs1` [CBK287317]: the “% of control remaining” value came out at 165.407%.

Consider `[O-][n+]1c2c([n+]([O-])c3c1CCCC3)CCCC2` [CBK261714], for which the “% of control remaining” value is reported as 113.485%.

Take `Cn1ccnc1[S+]([O-])Cc1nc2ccccc2s1` (stereo not drawn) [CBK005549]: the “% of control remaining” value is 108.317%. As for `O=C(CC1CCN(Cc2cccc(C(F)(F)F)c2)CC1)N(Cc1ccccn1)C1CC1` [CBK286494], the figure is 100.914%; as for `c1ccc2c(c1)OCC(COc1nccnc1OC1CCN(CC3CC3)CC1)O2` (stereo not drawn) [CBK083001T], 108.608%; as for `CCC(CO)NC(=O)C1(Cc2ccc(-c3cc(C)cc(C)c3)cc2)CCOCC1` (stereo not drawn) [CBK286522], 131.258%. `O=C(Cc1ccc(F)cc1)N1CC[C@@H](c2ccccc2)[C@H](O)C1` [CBK283714]: the “% of control remaining” value was 137.313%. As for `Cc1cc(NC(=O)C(C)SCc2cccc(C(F)(F)F)c2)no1` (stereo not drawn) [CBK306233], the figure is 182.12%; as for `CC(C)(C)c1cc(NC(=O)Cn2nc(C(=O)O)c3ccccc3c2=O)n(-c2ccccc2)n1` [CBK297557], 147.75%; as for `O=C(O)c1ccc(S(=O)(=O)c2ccc3c(c2)C(=O)N(c2ccccc2-c2ccccc2)C3=O)cc1` [CBK262760], 92.1508%. The value for `CCOc1ccsc1C(=O)N1CCC(Cc2ccccc2)CC1` [CBK200186] was 92.79%. The value for `CCOc1ccc(-c2cc(C(=O)NCc3cc(OC)ccc3OC)n[nH]2)cc1` [CBK288116] was 137.31%. Regarding `COc1ccc(-c2cnc(N)c(-c3ccc(F)c(Cl)c3)n2)cn1` [CBK063966], the “% of control remaining” value was found to be 116.557%. In the case of `O=C(Cn1cc(C(=O)NCC2(c3ccccc3)CCCC2)ccc1=O)NC1CCCC1` [CBK286040], the “% of control remaining” value is given as 130.198%.

Turning to `CCN(CC(=O)NCc1ccncc1)S(=O)(=O)c1ccccc1` [CBK269537], the “% of control remaining” value came out at 156.561%.

`CC(C)(C)CC(C)(C)Nc1nc(N)nc(N)n1` [CBK022832]: the “% of control remaining” value was determined as 119.221%. Regarding `O=C(CSc1nnc(CN2CCOCC2)n1-c1ccc(Cl)cc1)N1c2ccccc2SC2C=CC=CC21` (stereo not drawn) [CBK268820], the “% of control remaining” value amounted to 120.416%. In the case of `CC1COCC(C)N1c1ccc2nnc(-c3ccc(C(F)(F)F)cc3)n2n1` (stereo not drawn) [CBK009548], the “% of control remaining” value is reported as 139.246%.

Turning to `Cn1ncc2c(=O)n(Cc3nnsc3Cl)cnc21` [CBK237374], the “% of control remaining” value is listed as 126.202%. The value for `CN(C)CCCC(=O)Nc1ccc2[nH]ccc2c1` [CBK159698] was 109.023%. Take `O=C(CN1CCCC[C@H]2CN(C(=O)c3cccs3)C[C@H]21)NC1CC1` [CBK285504]: the “% of control remaining” value was determined as 98.7599%. Take `Cc1ccc(-n2c(SCC(=O)Nc3ccccc3F)nnc2-c2ccccc2O)c(C)c1` [CBK268905]: the “% of control remaining” value is 122.939%. The value for `Fc1ccc(OCCNCC2NCCc3c2[nH]c2ccccc32)cc1` (stereo not drawn) [CBK066972] was 100%; that for `O=C(N1CCOCC1)N1CCN(c2cncc(-c3ccc(O)cc3)n2)CC1` [CBK126946T] was 124.483%; that for `COc1ccc(/N=C2\S[C@H]3[C@H]([C@@H](O)[C@H](O)C[C@@H]3C(N)=O)N2Cc2ccc(F)cc2)cc1` [CBK288942] was 125.942%. Regarding `CCC(CN1CCCC1)NC(=O)C1(c2ccccc2)CCOCC1` (stereo not drawn) [CBK282758], the “% of control remaining” value amounted to 126.547%. As for `O=C(Nc1cncc(OC2CCNCC2)n1)c1ccoc1` [CBK036366T], the figure is 120.431%; as for `COc1ccc(CN2CCC(N3CCCCCC3)CC2)cc1OC` [CBK264721G], 100%; as for `Cc1cnc(NC(=O)c2ncoc2-c2cccs2)s1` [CBK283977], 112.791%.

The record behind these values is paper PMC12040169 (PLOS Biology, 2025).
